# PubChem BioAssay AID1224830, NIAID, 2016
# Test: 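Host factors that control LPS-induced TNF expression in human macrophages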 (primary screen)
# System: human THP-1 monocytic leukaemia cells, TNF dual-luciferase reporter clone, PMA-differentiated to macrophage-like cells
# Reagent: siRNA pool against human genes, 50 nM
# Timing: LPS for 4 h, given about 3 days after siRNA transfection
# Challenge: bacterial LPS (TLR4 ligand), 10 ng/ml
# Read-out: 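Ratio of firefly to renilla light, scaled to the plate median and expressed as a robust z-score per replicate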
# Scale: TNF reporter robust z-score: higher = stronger TNF reporter response to LPS
# Active means: 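Each well counts as active if its z-score is over 2.8 or under -1.5; controls are left without a call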
# Shown is one part, drawn at random, of about 18,000 reagents tested. About 2,900 of them (16%) count as active. 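Calls are made per well; low scores hint the gene aids the LPS response, high scores that it dampens it.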 Unmarked entries are inactive. Repeated entries: four replicate wells of each siRNA pool.
target gene,PubChem SID,TNF reporter robust z-score
MYO5B (myosin VB),SID315450126,0.42
MYO5B (myosin VB),SID315450126,1.38
MYO5B (myosin VB),SID315450126,0.43
MYO5B (myosin VB),SID315450126,0.99
CLHC1 (clathrin heavy chain linker domain containing 1),SID315461855,-0.68
CLHC1 (clathrin heavy chain linker domain containing 1),SID315461855,1.25
CLHC1 (clathrin heavy chain linker domain containing 1),SID315461855,0
CLHC1 (clathrin heavy chain linker domain containing 1),SID315461855,0.93
"LAMTOR4 (late endosomal/lysosomal adaptor, MAPK and MTOR activator 4)",SID315464564,0.73
"LAMTOR4 (late endosomal/lysosomal adaptor, MAPK and MTOR activator 4)",SID315464564,0.91
"LAMTOR4 (late endosomal/lysosomal adaptor, MAPK and MTOR activator 4)",SID315464564,0.99
"LAMTOR4 (late endosomal/lysosomal adaptor, MAPK and MTOR activator 4)",SID315464564,0.88
COA7 (cytochrome c oxidase assembly factor 7),SID315459102,1.73
COA7 (cytochrome c oxidase assembly factor 7),SID315459102,1.41
COA7 (cytochrome c oxidase assembly factor 7),SID315459102,-0.12
COA7 (cytochrome c oxidase assembly factor 7),SID315459102,1.15
IFT20 (intraflagellar transport 20),SID315460820,1
IFT20 (intraflagellar transport 20),SID315460820,0.43
IFT20 (intraflagellar transport 20),SID315460820,-0.9
IFT20 (intraflagellar transport 20),SID315460820,-0.66
GCSAML (germinal center associated signaling and motility like),SID315462394,-0.96
GCSAML (germinal center associated signaling and motility like),SID315462394,-0.35
GCSAML (germinal center associated signaling and motility like),SID315462394,-0.26
GCSAML (germinal center associated signaling and motility like),SID315462394,-0.75
EEF2 (eukaryotic translation elongation factor 2),SID315448445,1.92
EEF2 (eukaryotic translation elongation factor 2),SID315448445,2.49
EEF2 (eukaryotic translation elongation factor 2),SID315448445,1.83
EEF2 (eukaryotic translation elongation factor 2),SID315448445,0.75
NKD2 (NKD inhibitor of Wnt signaling pathway 2),SID315460680,0.23
NKD2 (NKD inhibitor of Wnt signaling pathway 2),SID315460680,0.54
NKD2 (NKD inhibitor of Wnt signaling pathway 2),SID315460680,0.83
NKD2 (NKD inhibitor of Wnt signaling pathway 2),SID315460680,0.28
CYFIP2 (cytoplasmic FMR1 interacting protein 2),SID315455871,-0.27
CYFIP2 (cytoplasmic FMR1 interacting protein 2),SID315455871,-0.6
CYFIP2 (cytoplasmic FMR1 interacting protein 2),SID315455871,-1.17
CYFIP2 (cytoplasmic FMR1 interacting protein 2),SID315455871,-0.84
RTN4R (reticulon 4 receptor),SID315459078,-0.75
RTN4R (reticulon 4 receptor),SID315459078,-0.17
RTN4R (reticulon 4 receptor),SID315459078,-0.64
RTN4R (reticulon 4 receptor),SID315459078,-0.28
AIP (AHR interacting HSP90 co-chaperone),SID315453000,-0.49
AIP (AHR interacting HSP90 co-chaperone),SID315453000,0.32
AIP (AHR interacting HSP90 co-chaperone),SID315453000,-0.03
AIP (AHR interacting HSP90 co-chaperone),SID315453000,0.78
"ITPR1 (inositol 1,4,5-trisphosphate receptor type 1)",SID315449575,0.43
"ITPR1 (inositol 1,4,5-trisphosphate receptor type 1)",SID315449575,0.3
"ITPR1 (inositol 1,4,5-trisphosphate receptor type 1)",SID315449575,-0.06
"ITPR1 (inositol 1,4,5-trisphosphate receptor type 1)",SID315449575,1.2
